Results as given in patent publication US20050026987A1, “CBI analogues of the duocarmycins and CC-1065” (The Scripps Research Institute, priority 2003, published 2005).
Some results were stated once for a whole list of compounds, not compound by compound. For some of these results: At least one structure is not confirmed: it was looked up by name or label, or the drawing left a doubt.

What was measured:
[1] = tested on: L1210; assay: L1210 cytotoxic potency; settings: for unnatural enantiomer less potent than natural enantiomer: approximately
[2] = tested on: L1210; settings: literature comparison series; cited from earlier work

3-(Pyrrolo[3,2-e]indole-7-carbonyl)-1-(S)-(chloromethyl)-5-hydroxy-1,2-dihydro-3H-benz[e]indole [compound 69]
loss in activity on introduction of unsaturation ([1]; 66 vs. 69 and 71 vs. 70): > 10 fold

O=C1C=C2N(C(=O)c3cc4c(ccc5ccccc54)[nH]3)C[C@H]3C[C@@]23c2ccccc21 [(−)-77, N^2-[(Benz[e]indole-2-yl)carbonyl]-1,2,9,9a-tetrahydrocyclopropa[c]benz[e]indol-4-one]
unnatural enantiomer less potent than natural enantiomer [1]: 100-1000 ×

O=C1C=C2N(C(=O)c3cc4cc5ccccc5cc4[nH]3)C[C@@H]3C[C@]23c2ccccc21 [(−)-78, N^2-[(Benz[f]indole-2-yl)carbonyl]-1,2,9,9a-tetrahydrocyclopropa[c]benz[e]indol-4-one]
unnatural enantiomer less potent than natural enantiomer [1]: 100-1000 ×

COC(=O)c1cc2c([nH]1)C(=O)C=C1N(C(=O)c3cc4cc(OC)c(OC)c(OC)c4[nH]3)CC3CC123 (stereo not shown) [duocarmycin SA]
effect of 5,6,7-trimethoxy substitution / removal of TMI methoxy substituents on cytotoxic potency [2]: 6-10 fold
